Test results from PubChem BioAssay AID662 (National Center for Advancing Translational Sciences (NCATS), 2007).
The other results are listed elsewhere or left out. Further columns of the screen follow, without active or inactive calls. Most of these compounds were active or inconclusive in the main read-out, so they are no random draw. The note in brackets gives the kind of curve behind each potency; many fits are weak.

Assay: Cell signaling CRE-BLA (Fsk stim)
Conditions: CHO CRE-bla reporter (cAMP response element driving beta-lactamase), forskolin EC10, beta-lactamase ratio; measured here: 460 nm blue channel
In short: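 CHO CRE-bla cells, overnight plating in Opti-MEM with 0.5% dialyzed FBS; cpd titration + EC10 NKH 477, 3 h 37 °C; CCF4 2 h RT; ex 405/em 460 vs 530 ratio → %Activity, AC50.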

SMILES | AC50
c1csc(-c2nn3c(-c4ccncc4)nnc3s2)c1 | 10 µM [rising, single point]
CCc1cc2c(CN3CCN(CCO)CC3)cc(=O)oc2cc1O | 10 µM [rising, partial curve]
CN(C)c1ccc(C2N(C(=O)N3CCOCC3)CCN2S(=O)(=O)c2ccccc2)cc1 (centres undefined) | 0.251 µM [rising, partial curve, poor fit]
Cc1sc2ncn3c(C)nnc3c2c1C | 3.98 µM [falling, single point]
CCCCCC(=O)Nc1cccc(-c2nc3ncccc3o2)c1 | 15.8 µM [rising, single point]
O=C1CC(c2ccc(F)cc2)Cc2nc(N3CCc4ccccc43)ncc21 (centres undefined) | 15.8 µM [rising, single point]
Cc1noc(C)c1-c1nccc(-n2ccnc2)n1 | 7.94 µM [rising, partial curve]
CCOC(=O)c1cc(C#N)c(SCc2ccc(C#N)cc2)nc1C | 3.16 µM [rising, single point]
Cc1ccc(C2C3=C(CC(C)(C)CC3=O)N(CCN3CCOCC3)C3=C2C(=O)CC(C)(C)C3)cc1 | 12.6 µM [rising, partial curve]
COc1ccc(C)cc1S(=O)(=O)N(C)CC(=O)NCc1ccco1 | 12.6 µM [falling, single point]
O=C(Nc1c(C(=O)N2CCOCC2)cnn1-c1ccccc1)c1ccccc1 | 0.00398 µM [falling, full curve, poor fit]
Cc1ccc(C(=O)CC2(O)C(=O)N(CN3CCOCC3)c3ccccc32)cc1 (centres undefined) | 0.251 µM [falling, partial curve, poor fit]
Cc1ccc(SC/C(O)=C(\C#N)c2nc3ccccc3n2C)cc1 | 12.6 µM [rising, single point]
Cn1c(=O)oc2cc(S(=O)(=O)N3CCC(C(=O)Nc4ccc(OC(F)(F)F)cc4)CC3)ccc21 | 0.398 µM [falling, single point]
CCCn1nc(C(=O)NCCN2CCOCC2)c2ccccc2c1=O | 0.00794 µM [falling, full curve, poor fit]
Fc1ccc(COc2ccc(/C=N/n3cnnc3)cc2)cc1 | 0.1 µM [falling, full curve]
O=C(c1ccco1)N1CCN(c2ncnc3scc(-c4cccs4)c23)CC1 | 25.1 µM [rising, single point]
O=C(CCN1CCN(c2ccccn2)CC1)Nc1ccc(F)cc1 | 31.6 µM [falling, single point]
CC(NC(=O)c1cccs1)C(c1cccs1)N1CCN(Cc2ccccc2)CC1 (centres undefined) | 25.1 µM [rising, single point]
COc1ccc2c(c1OC)C(=O)OC2[C@H]1c2c(cc3c(c2OC)OCO3)CCN1C (some centres undefined) | 31.6 µM [rising, partial curve]
CN(Cc1ccccc1)Cc1nc2c(c(=O)n(C)c(=O)n2C)n1Cc1ccc(F)cc1 | 25.1 µM [rising, single point]
CCC(C)NC(=O)C1CCN(S(=O)(=O)c2cccnc2)CC1 (centres undefined) | 1 µM [falling, full curve]
O=C(Cc1c(F)cccc1Cl)N1CCN(C(=O)c2ccco2)CC1 | 10 µM [falling, single point]

A different layout for some results above:
SMILES	AC50
O=C(c1ccco1)N1CCN(c2ncnc3scc(-c4cccs4)c23)CC1	25.1 µM [rising, single point]
O=C(CCN1CCN(c2ccccn2)CC1)Nc1ccc(F)cc1	31.6 µM [falling, single point]
CC(NC(=O)c1cccs1)C(c1cccs1)N1CCN(Cc2ccccc2)CC1 (centres undefined)	25.1 µM [rising, single point]

More entries:

SMILES | AC50
Cc1ccc(C2=CC(c3ccc(N(C)C)cc3)n3nnnc3N2)cc1 (centres undefined) | 7.94 µM [rising, partial curve]
Cc1cnc(CNc2nc(-c3ccccc3Cl)nc3ccccc23)cn1 | 12.6 µM [rising, partial curve]
O=S(=O)(Cc1ccccc1)N1CCCCCC1 | 12.6 µM [rising, partial curve]
Cc1cccc2cc3c(NC(=O)CC(C)C)nn(C)c3nc12 | 10 µM [rising, partial curve]
Cc1[nH]c2ccccc2c1-c1cc(-c2cc(-c3c(C)[nH]c4ccccc34)nc(N)n2)nc(N)n1 | 5.01 µM [rising, partial curve]
COc1ccc2[nH]c(=O)c(CN(C(C)=O)c3cccc(C)c3)cc2c1 | 12.6 µM [rising, single point]
CC(C)CCSc1nc2c(c(=O)[nH]c(=O)n2C)n1CCCc1ccccc1 | 12.6 µM [rising, single point]
COc1ccc(CNC(=O)c2cc(-c3ccco3)on2)cc1 | 1.26 µM [falling, partial curve]
O=c1c(-c2ccccc2)nc2cnc(N3CCOCC3)nc2n1-c1ccccc1 | 3.98 µM [rising, partial curve]
O=C1CCCCCN1Cc1nnc(SCc2nc3ccccc3s2)n1-c1ccccn1 | 0.251 µM [falling, full curve]
O=C(Cn1cnc2c(nnn2-c2ccc(F)cc2)c1=O)NCc1ccco1 | 0.316 µM [falling, partial curve, poor fit]
COc1ccc2cc3cc(C(=O)NCCc4ccc(OC)c(OC)c4)oc3nc2c1 | 3.16 µM [rising, partial curve]
O=C(Nc1ccccn1)c1cccc(S(=O)(=O)N2CCCCC2)c1 | 0.794 µM [falling, full curve, poor fit]
O=C(CCn1nnc2ccccc21)Nc1nnc(Cc2ccccc2)s1 | 0.00398 µM [falling, full curve, poor fit]
Cn1c(CCNC(=O)c2ccccc2F)nnc1SCc1nc2ccccc2c(=O)[nH]1 | 0.00398 µM [falling, full curve, poor fit]
c1cncc(-c2nnc3n2CCC3)c1 | 3.16 µM [falling, single point]
C=CCn1nnc2sc3c(c2c1=O)CCC(C)C3 (centres undefined) | 10 µM [rising, single point]
COc1ccccc1C(=O)NCC(=O)Nc1ccccc1 | 25.1 µM [rising, single point]
COCC(=O)N1CCC2(CCCN(C(=O)Nc3cccc(F)c3)C2)CC1 | 25.1 µM [falling, single point]
c1ccc(Cc2ccc(OCCn3cncn3)cc2)cc1 | 0.00316 µM [falling, partial curve, poor fit]
COCC(=O)Nc1sc2c(c1C(=O)OC)CCCC2 | 12.6 µM [rising, single point]
CS(=O)(=O)Nc1cccc(-c2nc(N3CCNCC3)c3ccccc3n2)c1 | 10 µM [rising, partial curve]
O=C(O)CCc1nc(-c2ccccc2Cl)no1 | 10 µM [falling, single point]

SMILES | AC50
COc1ccc2cc(C(c3nnnn3CCc3ccccc3)N3CCCC(C)C3)c(=O)[nH]c2c1 (centres undefined) | 12.6 µM [rising, partial curve]
Cc1sc2nc(-c3ccco3)oc(=O)c2c1C | 25.1 µM [rising, partial curve]
CCNc1nc(N2CCCCC2)nc(-n2nnc(C(=O)OCC)c2C)n1 | 12.6 µM [rising, partial curve]
COc1cc2oc(-c3ccccc3)cc(=O)c2cc1OC | 3.16 µM [rising, full curve]
CC(=O)C(Sc1nc(-c2ccco2)nc2c1c(=O)n(C)c(=O)n2C)C(=O)N(C)C (centres undefined) | 5.01 µM [rising, partial curve]
COc1cccc(N2CCN(CC(=O)Nc3nnc(-c4ccccc4)s3)CC2)c1 | 12.6 µM [falling, partial curve]
CC(C)(C)Nc1nc(SCc2ccccc2)nc(N2CCOCC2)n1 | 2 µM [rising, full curve]
COc1ccc(C(=O)O)cc1F | 0.00398 µM [falling, full curve, poor fit]
O=S(=O)(c1ccc(OCC(O)CN2CCN(c3ccccc3Cl)CC2)cc1)N1CCOCC1 (centres undefined) | 5.01 µM [falling, single point]
COCCn1c(=NC(=O)CSCC(=O)Nc2cc(C)on2)sc2cc(C(=O)OC)ccc21 | 1.26 µM [falling, full curve]
CSc1nnnn1CCn1nnnc1SC | 0.126 µM [falling, full curve, poor fit]
CCOC(=O)c1c(NC(=O)CSc2nnc(CN3CCOCC3)n2C)sc2c1CCCC2 | 7.94 µM [falling, partial curve]
CCOc1ccccc1C(=O)NC(C(=O)Nc1ccccc1N1CCOCC1)C(C)C (centres undefined) | 15.8 µM [rising, partial curve]
COc1cc(NC(=O)c2onc(C)c2Cl)c(OC)cc1Cl | 12.6 µM [rising, partial curve]
c1ccc2nc3c(nc2c1)CCc1nonc1-3 | 15.8 µM [rising, single point]
CCOC(=O)CNc1c(-c2ccc(O)cc2)nc2ccccn12 | 12.6 µM [falling, partial curve]
COC(=O)c1ccccc1NC(=O)CSc1nc(N)cc(N)n1 | 10 µM [rising, partial curve]
O=C(Oc1ccccc1)N1CCC2(CCCN(c3ccccc3)C2)CC1 | 1 µM [rising, partial curve]
O=c1[nH]cnc2c1sc(=S)n2-c1ccccc1 | 0.158 µM [rising, full curve, poor fit]
CCOC(=O)C1CCCN(C(=O)c2ccc(OCC)cc2)C1 (centres undefined) | 0.00316 µM [falling, full curve, poor fit]
CN(Cc1ccco1)c1ccnc(-c2cccc(C#N)c2)n1 | 6.31 µM [rising, partial curve]
C=CCOC(=O)C1=C(C)Nc2nnnn2C1c1cccc(OC)c1OC (centres undefined) | 25.1 µM [rising, single point]
N#Cc1c(SCC(N)=O)nc(-c2ccccc2)c2c1CCCC2 | 6.31 µM [rising, partial curve]
